PubChem BioAssay AID602196, INSERM, 2012

Assay: 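Modifiers of cisplatin sensitivity in A549 cells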
Cell system: human A549 lung cancer cells
Knock-down reagent: siRNA pair against human genes
Timing: 48 h transfection before cisplatin; time from cisplatin to read-out not stated
Challenge: cisplatin at a dose killing half of control-siRNA cells; exact dose and duration not given
Measurement: 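Shift in cisplatin death relative to control siRNA, from -50 (all cells die) to +50 (no cells die); siRNAs harmful on their own scored 0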
Reading the numbers: two-siRNA summed score (-2 to +2): higher = both siRNAs protect from cisplatin killing; -2 means both sensitise; mean protection from cisplatin (shift in death): higher = protection from cisplatin killing
Rule for the call: 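Each siRNA scores 0 if harmful alone by LDH or WST-1, otherwise +1 if it reduces and -1 if it increases cisplatin killing; a gene is active when both siRNAs agree (sum +2 or -2)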
Meaning of the calls: active = both siRNAs shift cisplatin killing the same way; inactive = no consistent shift, or siRNA harmful alone
Shown is a random part of about 23,000 reagents. Of all reagents, 455 (2%) got an active call. 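Active includes both protection and sensitisation; some change values fall well beyond the stated -50 to +50 range.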 Unmarked entries are inactive. Not all columns of the deposit are shown. Not given: the amount of reagent.

For IRAK3 (interleukin 1 receptor associated kinase 3), what does the deposit list?
two-siRNA summed score (-2 to +2): 0; mean protection from cisplatin (shift in death) (%): 4.2

For CFAP300 (cilia and flagella associated protein 300), what was measured?
two-siRNA summed score (-2 to +2): 0; mean protection from cisplatin (shift in death) (%): 0.5

With BAIAP2L1 (BAR/IMD domain containing adaptor protein 2 like 1), what does the deposit list?
two-siRNA summed score (-2 to +2): 0; mean protection from cisplatin (shift in death) (%): -0.8

What did the screen give for MDC1 (mediator of DNA damage checkpoint 1)?
two-siRNA summed score (-2 to +2): 1; mean protection from cisplatin (shift in death) (%): 8.4

What did the screen give for LOC441336?
two-siRNA summed score (-2 to +2): 0; mean protection from cisplatin (shift in death) (%): 3.6

With SLC44A3, how do the results read?
two-siRNA summed score (-2 to +2): 0; mean protection from cisplatin (shift in death) (%): -0.8

What is on record for GPAA1 (glycosylphosphatidylinositol anchor attachment 1)?
two-siRNA summed score (-2 to +2): 0; mean protection from cisplatin (shift in death) (%): 0.1

What is on record for GALNT6 (polypeptide N-acetylgalactosaminyltransferase 6)?
two-siRNA summed score (-2 to +2): 1; mean protection from cisplatin (shift in death) (%): 20.5

How did the screen score HYCC1 (hyccin PI4KA lipid kinase complex subunit 1)?
two-siRNA summed score (-2 to +2): 0; mean protection from cisplatin (shift in death) (%): -2.4

Which result is listed for ZNF544 (zinc finger protein 544)?
two-siRNA summed score (-2 to +2): 0; mean protection from cisplatin (shift in death) (%): 0.5

What did the screen give for AMN (amnion associated transmembrane protein)?
two-siRNA summed score (-2 to +2): 0; mean protection from cisplatin (shift in death) (%): 13.3

What did the screen give for LOC441389?
two-siRNA summed score (-2 to +2): 1; mean protection from cisplatin (shift in death) (%): 5.8

With RASA1 (RAS p21 protein activator 1), what does the deposit list?
two-siRNA summed score (-2 to +2): 0; mean protection from cisplatin (shift in death) (%): -6.5

How did the screen score TCP11L1 (t-complex 11 like 1)?
two-siRNA summed score (-2 to +2): -1; mean protection from cisplatin (shift in death) (%): -9.1

With LOC391365, how do the results read?
two-siRNA summed score (-2 to +2): 0; mean protection from cisplatin (shift in death) (%): 18.7

With LOC125893, what does the deposit list?
two-siRNA summed score (-2 to +2): 0; mean protection from cisplatin (shift in death) (%): 7.8

With VAX2 (ventral anterior homeobox 2), how do the results read?
two-siRNA summed score (-2 to +2): 0; mean protection from cisplatin (shift in death) (%): -9.5

What is on record for CT75 (cancer/testis associated transcript 75)?
two-siRNA summed score (-2 to +2): 1; mean protection from cisplatin (shift in death) (%): 19.1

For STK25 (serine/threonine kinase 25), what does the deposit list?
two-siRNA summed score (-2 to +2): -1; mean protection from cisplatin (shift in death) (%): -9.6

What did the screen give for NEFH (neurofilament heavy chain)?
two-siRNA summed score (-2 to +2): -1; mean protection from cisplatin (shift in death) (%): -2.7

What did the screen give for SIRT3 (sirtuin 3)?
two-siRNA summed score (-2 to +2): 0; mean protection from cisplatin (shift in death) (%): -13.6

What did the screen give for FLJ40176?
two-siRNA summed score (-2 to +2): 0; mean protection from cisplatin (shift in death) (%): 7.3

Which result is listed for TSC1 (TSC complex subunit 1)?
two-siRNA summed score (-2 to +2): 0; mean protection from cisplatin (shift in death) (%): 23.3

What is on record for BIN1 (bridging integrator 1)?
two-siRNA summed score (-2 to +2): 1; mean protection from cisplatin (shift in death) (%): 14.7

With EIF4G1 (eukaryotic translation initiation factor 4 gamma 1), how do the results read?
two-siRNA summed score (-2 to +2): 0; mean protection from cisplatin (shift in death) (%): 7.3

How did the screen score SAFB2 (scaffold attachment factor B2)?
two-siRNA summed score (-2 to +2): 0; mean protection from cisplatin (shift in death) (%): 0

For MRPS16 (mitochondrial ribosomal protein S16), what was measured?
two-siRNA summed score (-2 to +2): 0; mean protection from cisplatin (shift in death) (%): 1.7

With TCAIM (T cell activation inhibitor, mitochondrial), how do the results read?
two-siRNA summed score (-2 to +2): 1; mean protection from cisplatin (shift in death) (%): 27.3

With PDHX (pyruvate dehydrogenase complex component X), how do the results read?
two-siRNA summed score (-2 to +2): 0; mean protection from cisplatin (shift in death) (%): 1.3

Which result is listed for FGFBP2 (fibroblast growth factor binding protein 2)?
two-siRNA summed score (-2 to +2): 0; mean protection from cisplatin (shift in death) (%): 4.6

What did the screen give for LOC399768?
two-siRNA summed score (-2 to +2): -1; mean protection from cisplatin (shift in death) (%): -7.5
